pIC50: −log10 of the molar value.

Amino acid sequences for entries named in this document (tags omitted). A change or cut given only in a name is not applied to a line headed by its entry.
UniProt P48736: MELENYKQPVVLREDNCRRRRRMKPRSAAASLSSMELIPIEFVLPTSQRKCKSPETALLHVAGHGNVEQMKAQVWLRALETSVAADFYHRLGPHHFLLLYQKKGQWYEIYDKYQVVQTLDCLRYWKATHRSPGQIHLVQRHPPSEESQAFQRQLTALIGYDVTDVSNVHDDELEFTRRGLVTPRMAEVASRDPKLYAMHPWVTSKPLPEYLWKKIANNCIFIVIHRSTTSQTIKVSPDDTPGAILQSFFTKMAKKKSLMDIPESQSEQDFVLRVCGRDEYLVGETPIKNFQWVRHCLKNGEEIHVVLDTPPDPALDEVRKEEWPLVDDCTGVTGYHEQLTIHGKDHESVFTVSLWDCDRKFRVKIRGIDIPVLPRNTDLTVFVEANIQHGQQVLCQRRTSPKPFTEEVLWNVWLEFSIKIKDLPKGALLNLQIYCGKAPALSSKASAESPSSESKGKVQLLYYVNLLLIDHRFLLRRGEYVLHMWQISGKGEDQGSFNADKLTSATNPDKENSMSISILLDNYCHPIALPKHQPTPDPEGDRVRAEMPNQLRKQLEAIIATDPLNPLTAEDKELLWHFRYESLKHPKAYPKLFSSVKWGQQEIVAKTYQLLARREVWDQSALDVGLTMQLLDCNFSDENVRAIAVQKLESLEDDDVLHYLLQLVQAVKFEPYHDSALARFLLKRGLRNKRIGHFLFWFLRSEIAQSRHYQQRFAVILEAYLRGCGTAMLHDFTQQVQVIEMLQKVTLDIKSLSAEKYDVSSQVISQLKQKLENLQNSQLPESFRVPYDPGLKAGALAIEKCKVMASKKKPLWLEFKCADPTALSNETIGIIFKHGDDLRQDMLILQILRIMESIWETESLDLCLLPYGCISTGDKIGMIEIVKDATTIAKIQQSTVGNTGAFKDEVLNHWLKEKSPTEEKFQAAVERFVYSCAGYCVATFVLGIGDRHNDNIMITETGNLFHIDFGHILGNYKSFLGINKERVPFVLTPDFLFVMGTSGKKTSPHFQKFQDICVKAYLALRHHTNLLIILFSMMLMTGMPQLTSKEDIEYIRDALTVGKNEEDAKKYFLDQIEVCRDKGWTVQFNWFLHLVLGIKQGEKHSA

In this experiment the target is Phosphatidylinositol 4,5-bisphosphate 3-kinase catalytic subunit gamma isoform (Homo sapiens, UniProt P48736). Description: Inhibition of PI3Kgamma (unknown origin) assessed as decrease in fluorescence intensity using phosphorylated substrate.

As to `Cn1c(=O)c2c(ncn2C)n(C)c1=O` [CAFFEINE], the pIC50 was 2.44.
Regarding `Cn1c(=O)c2[nH]cnc2n(C)c1=O` [THEOPHYLLINE], the negative-log IC50 (pIC50) is 2.54.

The pIC50 is −log10 of the IC50, conventionally taken in molar units.

(Values after ChEMBL document CHEMBL3351785, “Discovery of nanomolar phosphoinositide 3-kinase gamma (PI3Kγ) inhibitors using ligand-based modeling and virtual screening followed by in vitro analysis” (Eur J Med Chem, 2014).)
